Source: paper PMC8538406
Results are given in words; binding and its absence hold for the method and conditions named. In cells and extracts the contact can be indirect. Some results given as binding are weak or reduced against the parent protein; the word gives no strength.

Chains of the proteins cited; added tags and fusions are not shown. Residues count along the entry.
UniProt P47774, residues 25-378: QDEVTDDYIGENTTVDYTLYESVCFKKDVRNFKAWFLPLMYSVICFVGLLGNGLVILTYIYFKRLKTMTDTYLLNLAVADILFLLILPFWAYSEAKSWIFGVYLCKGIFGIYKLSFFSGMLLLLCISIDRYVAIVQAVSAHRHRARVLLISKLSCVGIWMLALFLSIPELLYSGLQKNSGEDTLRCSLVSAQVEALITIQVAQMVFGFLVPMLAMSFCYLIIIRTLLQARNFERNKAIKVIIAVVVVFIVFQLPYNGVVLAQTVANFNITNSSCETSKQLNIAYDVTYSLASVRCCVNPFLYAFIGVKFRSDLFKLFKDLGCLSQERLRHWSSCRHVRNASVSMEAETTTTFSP
UniProt P70658: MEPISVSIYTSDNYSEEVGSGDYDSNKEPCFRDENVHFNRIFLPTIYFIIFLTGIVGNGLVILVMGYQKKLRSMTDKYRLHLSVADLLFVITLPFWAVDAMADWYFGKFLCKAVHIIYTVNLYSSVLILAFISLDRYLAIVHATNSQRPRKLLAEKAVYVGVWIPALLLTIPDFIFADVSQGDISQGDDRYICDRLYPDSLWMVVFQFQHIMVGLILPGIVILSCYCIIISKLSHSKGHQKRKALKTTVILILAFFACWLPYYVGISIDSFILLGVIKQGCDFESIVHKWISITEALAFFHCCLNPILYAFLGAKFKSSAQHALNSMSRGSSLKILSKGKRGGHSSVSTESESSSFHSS

Legend:
[1] = target: CCR7, mouse, endogenous in MMTV-PyMT primary mammary tumour cells (mouse (endogenous in MMTV-PyMT mammary epithelial cells)) (UniProt P47774); test: condition: only in cells from hyperplasia and early tumour stages; FRET or BRET; FACS-FRET on primary epithelial tumour cells of MMTV-PyMT mice, hyperplasia (~8 weeks) and early tumour (~11 weeks)
[2] = target: CCR7, mouse, endogenous in MMTV-PyMT primary mammary tumour cells (mouse (endogenous in MMTV-PyMT mammary epithelial cells)) (UniProt P47774); test: FRET or BRET; FACS-FRET on primary epithelial tumour cells of MMTV-PyMT mice, advanced invasive tumour (~18 weeks)

With “CXCR4, mouse, endogenous in MMTV-PyMT primary mammary tumour cells (from UniProt P70658 1-359) (receptor)” the binding [1] was “no binding” and the binding [2] was “binds”.
